# The supplement of paper PMC8728848
# The list shows a part of the results.
# Tests used:
# Test in all cases: glycan array binding signal (z-score within array); higher = stronger binding
# Conditions in all cases: glycan notation: IUPAC condensed, linker removed
# [1] = biological target: Fuc(a1-2)Gal(b1-4)[Fuc(a1-3)]GlcNAc
# Method in brief: (§1)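 Columns mapping to the same glycan were averaged after glycan names were converted to IUPAC-condensed notation. The data come from 3228 arrays in the Consortium for Functional Glycomics database, limited to those with an available protein sequence. Binding is reported as a within-array Z-score averaged across arrays of one protein sequence and across linkers.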
# [2] = biological target: Fuc(a1-2)Gal(b1-4)[Fuc(a1-3)]GlcNAc(b1-2)Man(a1-3)[Fuc(a1-2)Gal(b1-4)[Fuc(a1-3)]GlcNAc(b1-2)Man(a1-6)]Man(b1-4)GlcNAc(b1-4)[Fuc(a1-6)]GlcNAc
# Method in brief: as §1
# [3] = biological target: Fuc(a1-2)Gal(b1-4)[Fuc(a1-3)]GlcNAc(b1-2)[Fuc(a1-2)Gal(b1-4)[Fuc(a1-3)]GlcNAc(b1-4)]Man(a1-3)[Fuc(a1-2)Gal(b1-4)[Fuc(a1-3)]GlcNAc(b1-2)Man(a1-6)]Man(b1-4)GlcNAc(b1-4)GlcNAc
# Method in brief: as §1
# [4] = biological target: Fuc(a1-2)Gal(b1-4)[Fuc(a1-3)]GlcNAc(b1-3)Gal(b1-4)[Fuc(a1-3)]GlcNAc
# Method in brief: as §1
# [5] = biological target: Fuc(a1-2)Gal(b1-4)[Fuc(a1-3)]GlcNAc(b1-3)Gal(b1-4)[Fuc(a1-3)]GlcNAc(b1-3)Gal(b1-4)[Fuc(a1-3)]GlcNAc
# Method in brief: as §1
# [6] = biological target: Fuc(a1-2)Gal(b1-4)[Fuc(a1-3)]GlcNAc(b1-3)GalNAc
# Method in brief: as §1
# [7] = biological target: Fuc(a1-2)Gal(b1-4)[Fuc(a1-3)]GlcNAc(b1-3)[Neu5Ac(a2-6)Gal(b1-4)GlcNAc(b1-6)]Gal(b1-4)Glc
# Method in brief: as §1
# [8] = biological target: Fuc(a1-2)Gal3S(b1-4)GlcNAc
# Method in brief: as §1
# [9] = biological target: Fuc(a1-2)Gal6S(b1-3)GlcNAc
# Method in brief: as §1
# [10] = biological target: Fuc(a1-2)Gal6S(b1-3)GlcNAc6S
# Method in brief: as §1
# [11] = biological target: Fuc(a1-2)Gal6S(b1-4)Glc
# Method in brief: as §1
# [12] = biological target: Fuc(a1-2)Gal6S(b1-4)Glc6S
# Method in brief: as §1
# [13] = biological target: Fuc(a1-2)[Gal(a1-3)]Gal
# Method in brief: as §1
# [14] = biological target: Fuc(a1-2)[Gal(a1-3)]Gal(b1-3)GalNAc
# Method in brief: as §1
# [15] = biological target: Fuc(a1-2)[Gal(a1-3)]Gal(b1-3)GalNAc(b1-3)Gal(a1-4)Gal(b1-4)Glc
# Method in brief: as §1
# [16] = biological target: Fuc(a1-2)[Gal(a1-3)]Gal(b1-3)GlcNAc
# Method in brief: as §1
# [17] = biological target: Fuc(a1-2)[Gal(a1-3)]Gal(b1-3)GlcNAc(b1-2)Man(a1-3)[Fuc(a1-2)[Gal(a1-3)]Gal(b1-3)GlcNAc(b1-2)Man(a1-6)]Man(b1-4)GlcNAc(b1-4)GlcNAc
# Method in brief: as §1
# [18] = biological target: Fuc(a1-2)[Gal(a1-3)]Gal(b1-3)GlcNAc(b1-2)Man(a1-3)[Fuc(a1-2)[Gal(a1-3)]Gal(b1-3)GlcNAc(b1-2)Man(a1-6)]Man(b1-4)GlcNAc(b1-4)[Fuc(a1-6)]GlcNAc
# Method in brief: as §1
# [19] = biological target: Fuc(a1-2)[Gal(a1-3)]Gal(b1-3)GlcNAc(b1-3)GalNAc
# Method in brief: as §1
# [20] = biological target: Fuc(a1-2)[Gal(a1-3)]Gal(b1-3)GlcNAc(b1-6)GalNAc
# Method in brief: as §1
# [21] = biological target: Fuc(a1-2)[Gal(a1-3)]Gal(b1-4)Glc
# Method in brief: as §1
# [22] = biological target: Fuc(a1-2)[Gal(a1-3)]Gal(b1-4)GlcNAc
# Method in brief: as §1
# [23] = biological target: Fuc(a1-2)[Gal(a1-3)]Gal(b1-4)GlcNAc(b1-2)Man
# Method in brief: as §1
# [24] = biological target: Fuc(a1-2)[Gal(a1-3)]Gal(b1-4)GlcNAc(b1-2)Man(a1-3)[Fuc(a1-2)[Gal(a1-3)]Gal(b1-4)GlcNAc(b1-2)Man(a1-6)]Man(b1-4)GlcNAc(b1-4)GlcNAc
# Method in brief: as §1
# [25] = biological target: Fuc(a1-2)[Gal(a1-3)]Gal(b1-4)GlcNAc(b1-2)Man(a1-3)[Fuc(a1-2)[Gal(a1-3)]Gal(b1-4)GlcNAc(b1-2)Man(a1-6)]Man(b1-4)GlcNAc(b1-4)[Fuc(a1-6)]GlcNAc
# Method in brief: as §1
# [26] = biological target: Fuc(a1-2)[Gal(a1-3)]Gal(b1-4)GlcNAc(b1-3)GalNAc
# Method in brief: as §1
# [27] = biological target: Fuc(a1-2)[Gal(a1-3)]Gal(b1-4)GlcNAc(b1-6)GalNAc
# Method in brief: as §1
# [28] = biological target: Fuc(a1-2)[Gal(a1-3)]Gal(b1-4)[Fuc(a1-3)]Glc
# Method in brief: as §1
# [29] = biological target: Fuc(a1-2)[Gal(a1-3)]Gal(b1-4)[Fuc(a1-3)]GlcNAc
# Method in brief: as §1
# [30] = biological target: Fuc(a1-2)[Gal(a1-3)]Gal(b1-4)[Fuc(a1-3)]GlcNAc(b1-3)GalNAc
# Method in brief: as §1
# [31] = biological target: Fuc(a1-2)[Gal(a1-4)]Gal(b1-4)GlcNAc
# Method in brief: as §1
# [32] = biological target: Fuc(a1-2)[GalNAc(a1-3)]Gal
# Method in brief: as §1
# [33] = biological target: Fuc(a1-2)[GalNAc(a1-3)]Gal(b1-3)GalNAc(a1-3)[Fuc(a1-2)]Gal(b1-4)GlcNAc
# Method in brief: as §1
# [34] = biological target: Fuc(a1-2)[GalNAc(a1-3)]Gal(b1-3)GalNAc(b1-3)Gal(a1-4)Gal(b1-4)Glc
# Method in brief: as §1
# [35] = biological target: Fuc(a1-2)[GalNAc(a1-3)]Gal(b1-3)GlcNAc
# Method in brief: as §1
# [36] = biological target: Fuc(a1-2)[GalNAc(a1-3)]Gal(b1-3)GlcNAc(b1-2)Man(a1-3)[Fuc(a1-2)[GalNAc(a1-3)]Gal(b1-3)GlcNAc(b1-2)Man(a1-6)]Man(b1-4)GlcNAc(b1-4)GlcNAc
# Method in brief: as §1
# [37] = biological target: Fuc(a1-2)[GalNAc(a1-3)]Gal(b1-3)GlcNAc(b1-2)Man(a1-3)[Fuc(a1-2)[GalNAc(a1-3)]Gal(b1-3)GlcNAc(b1-2)Man(a1-6)]Man(b1-4)GlcNAc(b1-4)[Fuc(a1-6)]GlcNAc
# Method in brief: as §1
# [38] = biological target: Fuc(a1-2)[GalNAc(a1-3)]Gal(b1-3)GlcNAc(b1-3)GalNAc
# Method in brief: as §1
binder,measurement,setting,value
"Protein L(B1-B4) (Finegoldia magna), Q51912 (protein) KEETPETPETDSEEEVTIKANLIFANGSTQTAEFKGTFEKATSEAYAYADTLKKDNGEYTVDVADKGYTLNIKFAGKEKTPEEPKEEVTIKANLIYADGKTQTAEFKGTFEEATAEAYRYADALKKDNGEYTVDVADKGYTLNIKFAGKEKTPEEPKEEVTIKANLIYADGKTQTAEFKGTFEEATAEAYRYADLLAKENGKYTVDVADKGYTLNIKFAGKEKTPEEPKEEVTIKANLIYADGKTQTAEFKGTFAEATAEAYRYADLLAKENGKYTADLEDGGYTINIRFAG",glycan array binding signal (z-score),[1],-0.142
same,glycan array binding signal (z-score),[2],-0.114
same,glycan array binding signal (z-score),[3],0.954
same,glycan array binding signal (z-score),[4],-0.222
same,glycan array binding signal (z-score),[5],0.159
same,glycan array binding signal (z-score),[6],1.58
same,glycan array binding signal (z-score),[7],-0.418
same,glycan array binding signal (z-score),[8],-0.671
same,glycan array binding signal (z-score),[9],-0.139
same,glycan array binding signal (z-score),[10],0.659
same,glycan array binding signal (z-score),[11],0.451
same,glycan array binding signal (z-score),[12],-0.084
same,glycan array binding signal (z-score),[13],-0.318
same,glycan array binding signal (z-score),[14],-0.327
same,glycan array binding signal (z-score),[15],-0.736
same,glycan array binding signal (z-score),[16],-0.191
same,glycan array binding signal (z-score),[17],0.266
same,glycan array binding signal (z-score),[18],3.09
same,glycan array binding signal (z-score),[19],0.698
same,glycan array binding signal (z-score),[20],-0.099
same,glycan array binding signal (z-score),[21],0.047
same,glycan array binding signal (z-score),[22],-0.82
same,glycan array binding signal (z-score),[23],-0.663
same,glycan array binding signal (z-score),[24],0.796
same,glycan array binding signal (z-score),[25],0.815
same,glycan array binding signal (z-score),[26],3.09
same,glycan array binding signal (z-score),[27],-0.474
same,glycan array binding signal (z-score),[28],-0.024
same,glycan array binding signal (z-score),[29],0.143
same,glycan array binding signal (z-score),[30],1.4
same,glycan array binding signal (z-score),[31],-0.799
same,glycan array binding signal (z-score),[32],-0.906
same,glycan array binding signal (z-score),[33],-0.751
same,glycan array binding signal (z-score),[34],-0.372
same,glycan array binding signal (z-score),[35],-0.643
same,glycan array binding signal (z-score),[36],-0.525
same,glycan array binding signal (z-score),[37],1.11
same,glycan array binding signal (z-score),[38],0.515

# 10 consecutive records already listed, for reference:
binder,measurement,setting,value
"Protein L(B1-B4) (Finegoldia magna), Q51912 (protein) KEETPETPETDSEEEVTIKANLIFANGSTQTAEFKGTFEKATSEAYAYADTLKKDNGEYTVDVADKGYTLNIKFAGKEKTPEEPKEEVTIKANLIYADGKTQTAEFKGTFEEATAEAYRYADALKKDNGEYTVDVADKGYTLNIKFAGKEKTPEEPKEEVTIKANLIYADGKTQTAEFKGTFEEATAEAYRYADLLAKENGKYTVDVADKGYTLNIKFAGKEKTPEEPKEEVTIKANLIYADGKTQTAEFKGTFAEATAEAYRYADLLAKENGKYTADLEDGGYTINIRFAG",glycan array binding signal (z-score),[14],-0.327
same,glycan array binding signal (z-score),[15],-0.736
same,glycan array binding signal (z-score),[16],-0.191
same,glycan array binding signal (z-score),[17],0.266
same,glycan array binding signal (z-score),[18],3.09
same,glycan array binding signal (z-score),[19],0.698
same,glycan array binding signal (z-score),[20],-0.099
same,glycan array binding signal (z-score),[21],0.047
same,glycan array binding signal (z-score),[22],-0.82
same,glycan array binding signal (z-score),[23],-0.663
